Data on 40 targets can be found in the supplement of paper PMC10849652.

Chains of the proteins cited; added tags and fusions are not shown. Lines headed by an entry give the natural chain unless they say otherwise; changes in a name come on top.
UniProt Q9BSJ2, whole entry, looked up: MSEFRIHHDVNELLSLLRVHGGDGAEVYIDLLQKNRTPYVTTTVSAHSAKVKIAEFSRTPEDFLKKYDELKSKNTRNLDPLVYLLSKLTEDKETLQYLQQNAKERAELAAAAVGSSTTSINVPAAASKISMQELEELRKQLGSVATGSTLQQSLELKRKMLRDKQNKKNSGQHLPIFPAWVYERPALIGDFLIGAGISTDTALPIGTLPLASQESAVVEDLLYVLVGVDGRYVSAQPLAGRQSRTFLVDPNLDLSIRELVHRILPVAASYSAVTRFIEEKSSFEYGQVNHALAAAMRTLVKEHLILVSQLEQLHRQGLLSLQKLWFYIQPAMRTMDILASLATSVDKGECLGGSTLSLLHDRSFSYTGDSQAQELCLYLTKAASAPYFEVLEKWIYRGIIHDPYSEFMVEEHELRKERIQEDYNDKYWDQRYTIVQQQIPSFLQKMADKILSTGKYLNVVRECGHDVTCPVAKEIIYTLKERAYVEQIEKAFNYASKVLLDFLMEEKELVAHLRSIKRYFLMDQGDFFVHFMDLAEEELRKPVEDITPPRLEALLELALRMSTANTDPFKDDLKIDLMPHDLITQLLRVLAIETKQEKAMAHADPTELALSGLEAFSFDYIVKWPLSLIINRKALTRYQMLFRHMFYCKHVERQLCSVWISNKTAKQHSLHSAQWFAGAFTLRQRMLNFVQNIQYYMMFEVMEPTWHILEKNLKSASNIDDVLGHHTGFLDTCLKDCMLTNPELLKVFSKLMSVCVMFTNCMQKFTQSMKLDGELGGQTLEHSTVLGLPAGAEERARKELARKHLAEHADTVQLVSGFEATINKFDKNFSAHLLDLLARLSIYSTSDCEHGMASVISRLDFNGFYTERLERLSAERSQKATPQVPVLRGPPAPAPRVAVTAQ
UniProt P68036, whole entry, looked up: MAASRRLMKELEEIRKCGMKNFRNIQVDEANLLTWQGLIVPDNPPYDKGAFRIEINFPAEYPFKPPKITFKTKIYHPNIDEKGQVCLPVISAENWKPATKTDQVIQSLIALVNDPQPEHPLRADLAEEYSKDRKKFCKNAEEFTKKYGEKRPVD
UniProt Q9P2K2: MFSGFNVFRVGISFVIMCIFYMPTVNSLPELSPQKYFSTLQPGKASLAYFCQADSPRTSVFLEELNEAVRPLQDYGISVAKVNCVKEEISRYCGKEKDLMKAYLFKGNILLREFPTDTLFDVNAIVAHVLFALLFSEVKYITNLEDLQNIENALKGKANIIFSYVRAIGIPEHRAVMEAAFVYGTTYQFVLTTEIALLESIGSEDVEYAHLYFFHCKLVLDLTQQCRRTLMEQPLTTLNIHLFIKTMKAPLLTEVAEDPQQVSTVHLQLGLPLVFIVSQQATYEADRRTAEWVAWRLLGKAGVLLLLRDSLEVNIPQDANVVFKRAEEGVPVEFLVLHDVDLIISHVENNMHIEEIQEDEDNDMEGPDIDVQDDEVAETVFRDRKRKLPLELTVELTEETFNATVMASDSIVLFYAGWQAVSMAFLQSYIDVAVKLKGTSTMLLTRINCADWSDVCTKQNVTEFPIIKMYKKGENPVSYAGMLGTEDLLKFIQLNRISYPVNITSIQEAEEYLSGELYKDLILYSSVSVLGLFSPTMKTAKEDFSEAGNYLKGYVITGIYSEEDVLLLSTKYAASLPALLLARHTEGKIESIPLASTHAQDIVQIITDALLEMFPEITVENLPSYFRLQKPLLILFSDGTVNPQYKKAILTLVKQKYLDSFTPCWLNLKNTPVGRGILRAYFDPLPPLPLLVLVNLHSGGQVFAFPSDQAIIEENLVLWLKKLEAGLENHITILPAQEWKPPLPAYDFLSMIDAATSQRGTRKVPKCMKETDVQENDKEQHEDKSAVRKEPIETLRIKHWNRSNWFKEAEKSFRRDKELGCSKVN
UniProt P61088: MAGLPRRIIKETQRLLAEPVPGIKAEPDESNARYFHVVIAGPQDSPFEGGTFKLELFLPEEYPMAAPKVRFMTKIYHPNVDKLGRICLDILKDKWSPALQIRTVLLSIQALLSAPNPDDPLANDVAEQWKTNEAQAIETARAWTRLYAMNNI
UniProt Q9H832: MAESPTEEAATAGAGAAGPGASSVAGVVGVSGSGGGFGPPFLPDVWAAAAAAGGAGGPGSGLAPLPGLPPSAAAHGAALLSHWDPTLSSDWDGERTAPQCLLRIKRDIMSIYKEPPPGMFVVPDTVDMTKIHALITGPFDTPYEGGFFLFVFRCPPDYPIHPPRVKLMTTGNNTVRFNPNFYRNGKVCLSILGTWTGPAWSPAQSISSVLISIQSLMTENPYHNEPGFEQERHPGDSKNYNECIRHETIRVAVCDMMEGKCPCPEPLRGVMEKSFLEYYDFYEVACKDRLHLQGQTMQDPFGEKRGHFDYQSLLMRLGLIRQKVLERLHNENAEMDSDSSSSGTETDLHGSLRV
UniProt Q15631: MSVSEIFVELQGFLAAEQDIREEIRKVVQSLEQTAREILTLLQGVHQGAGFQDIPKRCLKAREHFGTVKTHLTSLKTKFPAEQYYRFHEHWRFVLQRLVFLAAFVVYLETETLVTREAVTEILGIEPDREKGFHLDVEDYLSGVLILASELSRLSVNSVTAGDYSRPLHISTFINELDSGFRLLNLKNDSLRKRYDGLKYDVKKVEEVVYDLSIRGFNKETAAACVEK
UniProt P61077: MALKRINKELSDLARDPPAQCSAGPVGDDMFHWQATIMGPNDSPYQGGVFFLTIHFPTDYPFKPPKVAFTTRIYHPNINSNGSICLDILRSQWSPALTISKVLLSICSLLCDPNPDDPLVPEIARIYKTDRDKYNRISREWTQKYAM
UniProt Q6DKK2: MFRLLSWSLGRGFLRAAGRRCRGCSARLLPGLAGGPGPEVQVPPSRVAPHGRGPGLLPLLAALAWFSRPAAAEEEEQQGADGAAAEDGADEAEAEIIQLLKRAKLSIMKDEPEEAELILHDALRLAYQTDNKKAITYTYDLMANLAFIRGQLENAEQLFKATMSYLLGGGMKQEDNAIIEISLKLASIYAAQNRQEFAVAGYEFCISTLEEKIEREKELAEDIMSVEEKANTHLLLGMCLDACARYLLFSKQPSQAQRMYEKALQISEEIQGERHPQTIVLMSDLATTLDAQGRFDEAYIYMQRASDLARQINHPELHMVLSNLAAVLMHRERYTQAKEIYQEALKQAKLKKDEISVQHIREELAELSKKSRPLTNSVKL
UniProt P83876: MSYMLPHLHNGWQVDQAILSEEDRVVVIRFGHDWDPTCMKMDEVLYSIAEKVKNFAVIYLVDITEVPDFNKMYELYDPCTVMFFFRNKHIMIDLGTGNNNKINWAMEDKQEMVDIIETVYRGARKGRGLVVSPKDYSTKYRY
UniProt Q2NL82: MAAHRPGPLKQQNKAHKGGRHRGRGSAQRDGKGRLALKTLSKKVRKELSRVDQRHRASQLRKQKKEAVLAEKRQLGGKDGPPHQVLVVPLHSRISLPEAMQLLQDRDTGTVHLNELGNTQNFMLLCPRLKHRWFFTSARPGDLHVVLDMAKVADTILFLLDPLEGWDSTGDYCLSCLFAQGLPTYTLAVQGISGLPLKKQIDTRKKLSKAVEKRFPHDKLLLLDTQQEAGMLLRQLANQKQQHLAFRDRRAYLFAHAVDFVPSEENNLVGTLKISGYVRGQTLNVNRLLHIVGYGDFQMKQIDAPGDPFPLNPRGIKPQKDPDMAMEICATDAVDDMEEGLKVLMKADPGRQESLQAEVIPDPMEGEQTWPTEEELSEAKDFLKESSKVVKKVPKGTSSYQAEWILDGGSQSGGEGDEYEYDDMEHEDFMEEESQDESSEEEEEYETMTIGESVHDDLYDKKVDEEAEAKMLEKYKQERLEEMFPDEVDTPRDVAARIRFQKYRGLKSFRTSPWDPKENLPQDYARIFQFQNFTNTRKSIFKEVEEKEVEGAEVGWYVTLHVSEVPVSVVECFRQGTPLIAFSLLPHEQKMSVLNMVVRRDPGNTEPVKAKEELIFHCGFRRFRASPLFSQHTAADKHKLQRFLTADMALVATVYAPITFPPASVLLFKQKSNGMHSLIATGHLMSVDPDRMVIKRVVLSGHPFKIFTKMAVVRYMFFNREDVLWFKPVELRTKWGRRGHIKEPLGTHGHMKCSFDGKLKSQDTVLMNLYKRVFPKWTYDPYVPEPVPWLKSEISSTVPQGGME
UniProt Q8NG11: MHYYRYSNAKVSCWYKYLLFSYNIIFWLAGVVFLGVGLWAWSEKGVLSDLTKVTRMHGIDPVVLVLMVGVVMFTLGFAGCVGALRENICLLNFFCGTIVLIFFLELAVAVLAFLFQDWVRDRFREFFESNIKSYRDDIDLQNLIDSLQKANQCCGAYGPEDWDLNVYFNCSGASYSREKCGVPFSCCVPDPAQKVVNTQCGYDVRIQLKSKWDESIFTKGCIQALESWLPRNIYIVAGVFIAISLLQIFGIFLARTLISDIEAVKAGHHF
UniProt Q9NUQ3: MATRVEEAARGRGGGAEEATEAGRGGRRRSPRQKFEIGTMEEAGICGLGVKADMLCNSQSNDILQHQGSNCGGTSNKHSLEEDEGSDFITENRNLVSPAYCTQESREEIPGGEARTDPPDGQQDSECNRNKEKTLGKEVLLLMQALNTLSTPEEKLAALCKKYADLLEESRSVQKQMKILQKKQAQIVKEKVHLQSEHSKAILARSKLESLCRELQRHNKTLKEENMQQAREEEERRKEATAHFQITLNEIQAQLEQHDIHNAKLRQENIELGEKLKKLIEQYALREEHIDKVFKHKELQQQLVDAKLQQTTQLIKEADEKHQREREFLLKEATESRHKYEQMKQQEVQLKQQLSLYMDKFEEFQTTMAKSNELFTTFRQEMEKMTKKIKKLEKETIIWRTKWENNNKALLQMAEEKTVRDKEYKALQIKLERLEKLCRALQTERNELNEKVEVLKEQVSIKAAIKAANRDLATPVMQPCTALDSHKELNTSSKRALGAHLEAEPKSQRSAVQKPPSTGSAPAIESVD
UniProt Q9BTX7: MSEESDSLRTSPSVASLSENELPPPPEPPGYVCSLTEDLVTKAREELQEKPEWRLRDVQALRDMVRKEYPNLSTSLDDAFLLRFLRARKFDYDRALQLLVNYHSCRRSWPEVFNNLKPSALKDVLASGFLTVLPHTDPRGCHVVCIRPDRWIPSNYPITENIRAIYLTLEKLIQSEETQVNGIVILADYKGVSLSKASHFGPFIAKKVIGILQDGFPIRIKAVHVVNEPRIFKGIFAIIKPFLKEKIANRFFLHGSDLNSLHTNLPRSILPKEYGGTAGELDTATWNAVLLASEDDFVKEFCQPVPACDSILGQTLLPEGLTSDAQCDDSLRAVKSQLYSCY
UniProt Q13630: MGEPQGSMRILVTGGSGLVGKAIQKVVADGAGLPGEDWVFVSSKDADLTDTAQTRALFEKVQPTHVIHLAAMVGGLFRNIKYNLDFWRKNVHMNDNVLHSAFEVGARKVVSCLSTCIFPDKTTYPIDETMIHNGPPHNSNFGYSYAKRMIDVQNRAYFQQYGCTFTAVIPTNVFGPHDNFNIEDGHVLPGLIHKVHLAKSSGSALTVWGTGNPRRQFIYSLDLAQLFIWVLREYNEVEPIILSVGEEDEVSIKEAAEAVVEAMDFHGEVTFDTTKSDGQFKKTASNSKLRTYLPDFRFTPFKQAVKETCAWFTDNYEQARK
UniProt Q969M7: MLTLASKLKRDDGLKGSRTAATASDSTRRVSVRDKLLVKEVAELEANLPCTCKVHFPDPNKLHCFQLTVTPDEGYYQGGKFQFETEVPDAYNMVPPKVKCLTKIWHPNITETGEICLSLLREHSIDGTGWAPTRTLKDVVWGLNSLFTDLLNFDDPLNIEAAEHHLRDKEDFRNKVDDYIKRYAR
UniProt Q8NBP0: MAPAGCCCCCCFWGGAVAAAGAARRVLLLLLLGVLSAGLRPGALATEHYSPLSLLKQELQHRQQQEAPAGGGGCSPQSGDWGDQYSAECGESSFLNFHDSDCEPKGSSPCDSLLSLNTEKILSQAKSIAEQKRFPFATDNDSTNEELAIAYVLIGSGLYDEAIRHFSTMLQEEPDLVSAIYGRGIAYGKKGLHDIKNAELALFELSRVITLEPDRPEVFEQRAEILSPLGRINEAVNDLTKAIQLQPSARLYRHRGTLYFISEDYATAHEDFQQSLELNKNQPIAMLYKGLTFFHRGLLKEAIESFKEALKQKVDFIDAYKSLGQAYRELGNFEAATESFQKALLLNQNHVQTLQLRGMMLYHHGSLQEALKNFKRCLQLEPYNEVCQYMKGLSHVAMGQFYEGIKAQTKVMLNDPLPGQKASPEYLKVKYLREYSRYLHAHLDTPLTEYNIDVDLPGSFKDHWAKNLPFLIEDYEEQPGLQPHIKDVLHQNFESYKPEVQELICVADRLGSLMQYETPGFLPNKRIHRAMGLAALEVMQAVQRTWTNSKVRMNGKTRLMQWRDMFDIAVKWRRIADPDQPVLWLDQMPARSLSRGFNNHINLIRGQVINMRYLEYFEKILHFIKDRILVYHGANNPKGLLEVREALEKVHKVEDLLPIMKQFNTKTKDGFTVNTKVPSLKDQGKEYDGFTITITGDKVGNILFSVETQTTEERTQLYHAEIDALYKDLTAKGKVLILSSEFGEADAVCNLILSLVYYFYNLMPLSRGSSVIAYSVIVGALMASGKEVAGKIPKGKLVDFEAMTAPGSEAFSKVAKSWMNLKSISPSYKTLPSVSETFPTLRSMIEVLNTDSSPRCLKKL

The other results are listed elsewhere or left out.

Compound in one assay: COC(=O)N[C@@H](C)CNc1nccc(-c2cn(C(C)C)nc2-c2cc(Cl)cc(NS(C)(=O)=O)c2F)n1 [encorafenib]
In words: log2 fold change, soluble protein after heating vs DMSO (PISA); higher = thermal stabilisation; K562 cells, 10 uM, 30 min; active = over 0.2 and 3.5 SD of the protein, either way, in both replicates (recomputed). Summed up:
(§1)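 K562 cells at 2×10^6 cells/mL were treated for 30 min with 10 μM compound, and aliquots were heated for 3 min over 48°C-58°C before pooling. Extraction used PBS with 0.5% NP-40 at 4°C, and soluble protein was the supernatant after 21,000xg for 90 min, measured by TMTpro 16plex LC-MS/MS with channel sums equalised. Thermal stability values, relative to control samples and from duplicates, are log2 fold changes.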
As to TUBGCP2 isoform 4 (UniProt Q9BSJ2), the log2 fold change is inactive: 0.137.

Consider UBE2L3 isoform 3 (UniProt P68036), for which the log2 fold change is inactive: -0.048.

For the target UBE2M (UniProt P61081), the log2 fold change was inactive: 0.022.

For U2SURP (UniProt O15042), the log2 fold change was inactive: 0.141.

Take UAP1L1 (UniProt Q3KQV9): the log2 fold change is inactive: -0.015.

For TUBA3C (UniProt P0DPH7), the log2 fold change is inactive: 0.187.

As to TWF1 (UniProt Q12792), the log2 fold change is inactive: -0.012.

For TXNDC16 (UniProt Q9P2K2), the log2 fold change was inactive: 0.063.

With UBE2N (UniProt P61088), the log2 fold change was inactive: -0.018.

As to TSPAN3 (UniProt O60637), the log2 fold change was inactive: 0.033.

As to UBA5 (UniProt Q9GZZ9), the log2 fold change was inactive: 0.027.

As for TUBB4A (UniProt M0QYM7), the log2 fold change is inactive: -0.036.

In the case of UBE2Z (UniProt Q9H832), the log2 fold change is inactive: 0.003.

TTN isoform 12 (UniProt Q8WZ42): the log2 fold change is inactive: -0.035.

Consider TUBB1 (UniProt Q9H4B7), for which the log2 fold change was inactive: 0.011.

Consider TSN (UniProt Q15631), for which the log2 fold change is inactive: -0.008.

Regarding TYW3 (UniProt Q6IPR3), the log2 fold change was inactive: 0.012.

As for UBE2D3 isoform 3 (UniProt P61077), the log2 fold change was inactive: 0.006.

As for UBE2K (UniProt P61086), the log2 fold change was inactive: 0.014.

For the target TTC19 (UniProt Q6DKK2), the log2 fold change is inactive: -0.009.

Take UAP1 (UniProt Q16222): the log2 fold change is inactive: -0.017.

Take TUBB6 (UniProt Q9BUF5): the log2 fold change is inactive: 0.018.

Regarding TXNL4A (UniProt P83876), the log2 fold change is inactive: -0.045.

TSR1 (UniProt Q2NL82): the log2 fold change is inactive: 0.161.

As for TUBB6 (UniProt K7ES63), the log2 fold change was inactive: -0.035.

TSPAN14 (UniProt Q8NG11): the log2 fold change is inactive: 0.025.

Turning to TWF2 (UniProt Q6IBS0), the log2 fold change is inactive: 0.

Regarding TUBB2B (UniProt Q9BVA1), the log2 fold change was inactive: -0.04.

Turning to TXLNG (UniProt Q9NUQ3), the log2 fold change was inactive: 0.001.

With TXNDC15 (UniProt Q96J42), the log2 fold change is inactive: 0.01.

Consider TTPAL (UniProt Q9BTX7), for which the log2 fold change was inactive: 0.013.

In the case of TTC1 (UniProt Q99614), the log2 fold change is inactive: -0.045.

TSTA3 (UniProt Q13630): the log2 fold change was inactive: -0.005.

Regarding TTC7B isoform 2 (UniProt Q86TV6), the log2 fold change is inactive: -0.061.

For TUBE1 (UniProt Q9UJT0), the log2 fold change is inactive: -0.03.

In the case of UBE2F isoform 2 (UniProt Q969M7), the log2 fold change was inactive: -0.018.

As for UBE2A (UniProt P49459), the log2 fold change is inactive: -0.112.

TTC27 (UniProt Q6P3X3): the log2 fold change was inactive: 0.116.

For TTC13 (UniProt Q8NBP0), the log2 fold change is inactive: -0.142.

Take TUBA1B (UniProt P68363): the log2 fold change was inactive: 0.013.

Compound in a further assay: COC(=O)[C@H](CCSC)NC(=O)C1=C(C=C(C=C1)NC[C@H](CS)N)C2=CC=CC=C2
Described as above. The gist of the method:
as §1
For TUBGCP2 isoform 4 (UniProt Q9BSJ2), the log2 fold change is inactive: -0.075.

Consider UBE2L3 isoform 3 (UniProt P68036), for which the log2 fold change was inactive: 0.048.

UBE2M (UniProt P61081): the log2 fold change was inactive: -0.027.

Take U2SURP (UniProt O15042): the log2 fold change is inactive: -0.116.

Consider UAP1L1 (UniProt Q3KQV9), for which the log2 fold change was inactive: 0.052.

Regarding TUBA3C (UniProt P0DPH7), the log2 fold change was inactive: 0.012.

With TWF1 (UniProt Q12792), the log2 fold change is inactive: 0.09.

For the target TXNDC16 (UniProt Q9P2K2), the log2 fold change was inactive: 0.034.

Regarding UBE2N (UniProt P61088), the log2 fold change was inactive: -0.032.

Regarding TSPAN3 (UniProt O60637), the log2 fold change is inactive: 0.081.

UBA5 (UniProt Q9GZZ9): the log2 fold change was inactive: -0.002.

Regarding TUBB4A (UniProt M0QYM7), the log2 fold change is inactive: 0.111.

In the case of UBE2Z (UniProt Q9H832), the log2 fold change is inactive: 0.012.

On to TTN isoform 12 (UniProt Q8WZ42), for which the log2 fold change is inactive: 0.076.

In the case of TUBB1 (UniProt Q9H4B7), the log2 fold change is inactive: -0.003.

As to TSN (UniProt Q15631), the log2 fold change is inactive: -0.019.

Turning to TYW3 (UniProt Q6IPR3), the log2 fold change was inactive: -0.026.

Turning to UBE2D3 isoform 3 (UniProt P61077), the log2 fold change is inactive: -0.05.

As for UBE2K (UniProt P61086), the log2 fold change is inactive: 0.029.

Regarding TTC19 (UniProt Q6DKK2), the log2 fold change is inactive: -0.01.

As for UAP1 (UniProt Q16222), the log2 fold change is inactive: 0.

Consider TUBB6 (UniProt Q9BUF5), for which the log2 fold change is inactive: -0.004.

Regarding TXNL4A (UniProt P83876), the log2 fold change is inactive: -0.023.

Consider TSR1 (UniProt Q2NL82), for which the log2 fold change was inactive: -0.048.

Consider TUBB6 (UniProt K7ES63), for which the log2 fold change was inactive: -0.051.

TSPAN14 (UniProt Q8NG11): the log2 fold change was inactive: 0.069.

TWF2 (UniProt Q6IBS0): the log2 fold change was inactive: 0.04.

As to TUBB2B (UniProt Q9BVA1), the log2 fold change is inactive: -0.158.

Regarding TXLNG (UniProt Q9NUQ3), the log2 fold change was inactive: -0.006.

For TXNDC15 (UniProt Q96J42), the log2 fold change was inactive: -0.093.

In the case of TTPAL (UniProt Q9BTX7), the log2 fold change was inactive: 0.017.

For TTC1 (UniProt Q99614), the log2 fold change was inactive: 0.019.

TSTA3 (UniProt Q13630): the log2 fold change was inactive: 0.025.

For the target TTC7B isoform 2 (UniProt Q86TV6), the log2 fold change is inactive: -0.17.

For TUBE1 (UniProt Q9UJT0), the log2 fold change is inactive: 0.046.

On to UBE2F isoform 2 (UniProt Q969M7), for which the log2 fold change was inactive: 0.014.

With UBE2A (UniProt P49459), the log2 fold change was inactive: -0.069.

Take TTC27 (UniProt Q6P3X3): the log2 fold change is inactive: -0.091.

Consider TTC13 (UniProt Q8NBP0), for which the log2 fold change was inactive: 0.269.

Turning to TUBA1B (UniProt P68363), the log2 fold change was inactive: 0.024.
